Results from patent US20230288426A1, “REAGENT FOR MEASURING L-BIOTIN, METHOD FOR MEASURING SAMPLE CONTAINING L-BIOTIN, METHOD FOR DETERMINING NUMBER OF LABELS OF L-BIOTIN-LABELED SUBSTANCE, AND METHOD FOR PRODUCING SOLID PHASE ON WHICH OPTICALLY ISOMERIC BIOTIN-BINDING SITE IS IMMOBILIZED” (SYSMEX CORPORATION, priority 2022, published 2023).

Legend:
[1] = system: optically isomeric streptavidin; experiment: HABA method with reagent for measuring L-biotin (optically isomeric streptavidin + HABA), absorbance at 500 nm; format: binding
[2] = Protein concentration by A280 and number of biotin groups per molecule of biotin-labeled polypeptide; format: physicochemical; settings: biotin concentration divided by molar concentration of BSA or Fab′

| Compound | L-Biotin ([1]; from calibration curve, BSA sample value multiplied by 100) [µM] | A500 ([1]; sample with reagent for measuring L-biotin, BSA sample diluted 100-fold) | Number of labels [2] | A500 ([1]; L-biotin standard solution 25 μM, reagent for measuring L-biotin) | A500 ([1]; L-biotin standard solution 50 μM, reagent for measuring L-biotin) |
| --- | --- | --- | --- | --- | --- |
| L-Bio-BSA: BSA labeled with L-biotin-AC5-NHS | 1231.9 | 0.234 | 8.2 |  |  |
| D-Bio-BSA: BSA labeled with D-biotin AC5-NHS |  |  | 9.1 |  |  |
| O=C(O)CCCC[C@H]1SC[C@H]2NC(=O)N[C@H]21 [L-Biotin, 3aR,4R,6aS-L-biotin] |  |  |  | 0.264 | 0.216 |
